Experimental data as given in article PMC550661.
Results are given in words; binding and its absence hold for the method and conditions named. Some results given as binding are weak or reduced against the parent protein; the word gives no strength.

Biological target: sea urchin major vault protein (MVP) (Strongylocentrotus purpuratus (endogenous in unfertilized eggs)) (UniProt Q5EAJ7)
Assay: cryo-EM structure; vaults isolated from unfertilized S. purpuratus eggs; single particle reconstruction from 409 particle images, D8 symmetry imposed, 33 Å by the 0.5 Fourier shell correlation criterion; both purified

binding: binds
B1: sea urchin major vault protein (MVP) (protein, UniProt Q5EAJ7 1-857)
chain: MASKRGSNQDESIFRIPPYYYIHVLDHNDNVTKVVVGPKTYIRQDHERVIFGPEKMITIPPRHYCIIENPVVRNDTDQVVYDNLGQVKLFHADQEIRLAREPFPLYPGEVLKQAVTALKVVQANAALRLRAILDFEDGTQKRVAGDEWLFEGPGTYIPRKEVVVDETIRATIIRPNQAIKLRARKETNDREGTARVTGEEWQVKKVGAYLPGAYEEVVDTVNAYVLTEKNALHLRATRTFVDMKGKTRKNGEEWLINMADTDAHIPDVYEEVVGVVDINTLTNRQYCVIVDPVGPDGKPQLGQKKLVKGEVSFFLQPGETLEQGIQSVFILGEDEGLILRAQESFKDANAAGAVRQPGDRWMIRGPCEYVPTVELEVVTRRKAIPLDENEGVYIRDTKTGKVRAVTGETYMLSQDEELWAKELSPAVEELLQSAKDPVAERSDRRGDRAAPRAREKTRVISFRVPHNAAVQIYDYKEKKARVVFGPELVMLGPDEQFTQLSLSGGKPKRPNVIKALCLLLGPDFCTDIITIETADHARLQLQLSYNWHFDVPDKTDVAASAKLFSVPDFIGDACKAIASRIRGAVAGVQFDDFHKNSAKIIRASVFGFDEKNKVRERFLFPQNSLVITSIDIQSVEPVDQRTRDALQKSVQLAIEITTNSQEATARHEAERLEQEARGRLERQKIMDEAEAEKSRKELLELQANSAAVESTGQAKAEAQSRAEAARIEGEAAVDQARLKAEAAKIESESELQRLTNAREAETKYVREQNALEVNKTKQMSDIETERFRNMVQSIGADTIKAMAMAGPEMQVKLLSSLGLKSTLITDGSTPINLFNTAQGLLGGFSAKRGIEHVEEED
